{"source": "patent US20230158108A1", "about": "(priority 2020, published 2023)", "tested_on": "LPS-induced acute lung inflammation", "format": "in vivo", "settings": "LPS-induced acute lung inflammation model; nNIF given IP", "source_text": "Thus, nNIF can reduce NETs similar to an FDA approved drug, such as dexamethasone.", "note": "For at least one compound, name, drawing or mass did not settle the structure.", "data": [{"compound": "C[C@@H]1C[C@H]2[C@@H]3CCC4=CC(=O)C=C[C@]4(C)[C@@]3(F)[C@@H](O)C[C@]2(C)[C@@]1(O)C(=O)CO", "note": "[dexamethasone, reference compound]", "values": [{"measurement": "In vivo efficacy: NETs or cells undergoing early NETosis (cytospin)", "value": "in vivo efficacy"}]}]}
